{
  "source": "patent US11974988B2",
  "about": "“Neuroprotective compositions and methods of using the same” (The Board of Supervisors of Louisiana State Univer …, priority 2018, dated 2024)",
  "tested_on": "activity-regulated Gln/MeAIB transport (SNAT activity) in hippocampal neurons",
  "experiment": "Activity-regulated (spontaneous, 4-AP- or K+-stimulated) [14C]-MeAIB transport in primary hippocampal neurons",
  "assay_type": "cell-based, rat",
  "conditions": "screens; 10 μM; GABA 2 mM",
  "data": [
    {"molecule": "NCCCC(=O)O", "note": "[GABA]", "values": [
      {"measurement": "inhibition of spontaneous activity-regulated 14C-MeAIB transport, in words", "value": "blocked"}
    ]}
  ]
}
